# Test results taken from publication PMC10321013.
# The chains behind the UniProt entries cited, without tags or fusion partners.
# UniProt P25490: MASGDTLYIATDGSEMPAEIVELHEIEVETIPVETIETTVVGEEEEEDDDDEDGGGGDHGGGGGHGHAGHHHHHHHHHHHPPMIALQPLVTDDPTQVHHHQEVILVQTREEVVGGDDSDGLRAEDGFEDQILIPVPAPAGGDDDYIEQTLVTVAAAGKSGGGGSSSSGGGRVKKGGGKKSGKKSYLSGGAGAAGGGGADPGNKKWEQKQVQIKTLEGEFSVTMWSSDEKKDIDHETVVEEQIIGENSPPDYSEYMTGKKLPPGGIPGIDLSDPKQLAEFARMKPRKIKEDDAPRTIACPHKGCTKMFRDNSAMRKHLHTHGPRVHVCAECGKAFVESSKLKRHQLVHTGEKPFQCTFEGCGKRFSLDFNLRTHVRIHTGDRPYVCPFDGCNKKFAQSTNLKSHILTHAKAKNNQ
# UniProt Q93009: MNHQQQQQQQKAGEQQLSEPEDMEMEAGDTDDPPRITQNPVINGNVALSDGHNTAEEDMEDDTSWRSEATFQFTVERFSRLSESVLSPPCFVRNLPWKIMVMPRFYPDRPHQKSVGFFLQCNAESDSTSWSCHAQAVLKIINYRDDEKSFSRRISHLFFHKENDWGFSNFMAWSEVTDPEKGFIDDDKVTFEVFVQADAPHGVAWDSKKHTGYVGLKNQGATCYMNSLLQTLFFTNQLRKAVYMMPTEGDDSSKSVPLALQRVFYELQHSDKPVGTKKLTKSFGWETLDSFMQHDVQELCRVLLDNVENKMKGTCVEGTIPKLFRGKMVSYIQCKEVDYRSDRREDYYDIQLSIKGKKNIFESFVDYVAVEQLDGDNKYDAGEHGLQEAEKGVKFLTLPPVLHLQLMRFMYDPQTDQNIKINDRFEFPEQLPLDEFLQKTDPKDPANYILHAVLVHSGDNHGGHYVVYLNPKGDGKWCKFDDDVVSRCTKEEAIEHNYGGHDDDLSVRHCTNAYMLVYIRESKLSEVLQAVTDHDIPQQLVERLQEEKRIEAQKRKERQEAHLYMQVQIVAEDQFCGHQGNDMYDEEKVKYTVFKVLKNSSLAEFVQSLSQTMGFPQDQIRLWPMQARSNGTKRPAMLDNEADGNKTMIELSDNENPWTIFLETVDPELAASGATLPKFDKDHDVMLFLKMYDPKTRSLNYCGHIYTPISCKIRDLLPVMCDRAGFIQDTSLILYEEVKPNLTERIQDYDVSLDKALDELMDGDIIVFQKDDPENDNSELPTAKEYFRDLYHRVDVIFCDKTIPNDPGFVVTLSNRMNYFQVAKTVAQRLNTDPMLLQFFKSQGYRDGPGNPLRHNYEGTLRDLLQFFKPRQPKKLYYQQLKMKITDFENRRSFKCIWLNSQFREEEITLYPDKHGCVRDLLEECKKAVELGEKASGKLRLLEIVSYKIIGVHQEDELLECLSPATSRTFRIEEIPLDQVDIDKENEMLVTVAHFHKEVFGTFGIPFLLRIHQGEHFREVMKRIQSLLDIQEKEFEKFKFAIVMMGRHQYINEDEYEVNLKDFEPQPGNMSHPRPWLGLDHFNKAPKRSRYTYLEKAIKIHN
# Target: Flag-YY1 (UniProt P25490)
# Experiment: affinity purification with mass spectrometry; lysate of PLC-PRF-5 cells expressing Flag-YY1 (0.3% Nonidet P-40, 150 mM NaCl, 50 mM Tris-HCl pH 7.4, 0.2 mM EDTA) on anti-Flag affinity beads, 12 h at 4 °C; eluted with Flag peptide; Coomassie bands analysed by LC-MS/MS
substance,measurement,value
Ubiquitin-specific protease 7 (USP7) (from UniProt Q93009 1-1102) (enzyme),binding,binds

# No constants are given. Whether binding was seen depends on the method and setting. In cells and extracts the contact can be indirect. These calls come from enrichment with a bait or labelling near it, and not all partners need be listed.
